In this test the target is T1, Caveolin-1 (mouse (endogenous in 4T1)) (UniProt P49817).
T1 sequence: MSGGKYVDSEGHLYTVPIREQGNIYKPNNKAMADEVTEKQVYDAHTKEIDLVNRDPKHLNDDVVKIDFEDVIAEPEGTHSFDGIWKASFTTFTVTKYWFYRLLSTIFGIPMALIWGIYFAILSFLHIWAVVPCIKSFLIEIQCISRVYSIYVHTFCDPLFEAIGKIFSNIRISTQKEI
The test is described as follows: co-IP; 4T1 WT cell lysate in IP lysis buffer (Pierce Co-IP kit), 500 μg protein in 200 μL, precleared; 2 μg Caveolin-1 antibody or normal rabbit IgG overnight at 4 °C, AminoLink Plus coupling resin 4 h at 4 °C, washed thrice; blotted for Cav-1 and ITGα3.

No constants are given. Whether binding was seen depends on the method and setting. Binding seen in cells or lysates may run through a third protein. Some results given as binding are weak or reduced against the parent protein; the word gives no strength.

B1: Integrin-α3 (protein, UniProt Q62470 33-1053)
chain: FNLDTRFLVVKEAVNPGSLFGYSVALHRQTERQQRYLLLAGAPRDLAVGDDYTNRTGAVYLCPLTAHKDDCERMDISEKSDPDHHIIEDMWLGVTVASQGPAGRVLVCAHRYTKVLWSGLEDQRRMVGKCYVRGNDLQLDPGDDWQTYHNEMCNSNTDYLQTGMCQLGTSGGFTQNTVYFGAPGAYNWKGNSYMIQRKDWDLSEYSYRGSEEQGNLYIGYTVQVGNAILHPTDIITVVTGAPRHQHMGAVFLLKQESGGDLQRKQVLKGTQVGAYFGSAIALADLNNDGWQDLLVGAPYYFERKEEVGGAVYVFMNQAGASFPDQPSLLLHGPSRSAFGISIASIGDINQDGFQDIAVGAPFEGLGKVYIYHSSSGGLLRQPQQIIHGEKLGLPGLATFGYSLSGKMDVDENLYPDLLVGSLSDHIVLLRARPVINILHRTLVARPAVLDPALCTATSCVQVELCFAYNQSAGNPNYRRNITLAYTLEADRDRRPPRLRFARSQSSVFHGFFSMPETHCQTLELLLMDNVRDKLRPIVIAMNYSLPLRMPDRLKLGLRSLDAYPVLNQAQAMENHTEVHFQKECGPDNKCDSNLQMRAAFLSEQLQPLSRLQYSRDTKKLFLSINVTNSPSSQRAGEDAHEALLTLEVPSALLLSSVRPSGTCQANNETILCELGNPFKRNQRMELLIAFEVIGVTLHTRDLPVLLQLSTSSHQDNLQPVLLTLQVDYTLQASLSLMNHRLQSFFGGTVMGEAAMKTAEDVGSPLKYEFQVSPVGDGLAALGTLVLGLEWPYEVTNGKWLLYPTEITIHSNGSWPCQPSGNLVNPLNLTLSDPGVTPLSPQRRRRQLDPGGDQSSPPVTLAAAKKAKSETVLTCSNGRARCVWLECPLPDTSNITNVTVKARVWNSTFIEDYKDFDRVRVDGWATLFLRTSIPTINMENKTTWFSVDIDSELVEELPAEIELWLVLVAVGAGLLLLGLIILLLWKCGFFKRARTRALYEAKRQKAEMKSQPSETERLTDDY
In the case of B1, the binding entry was “binds”.

Source of the values: publication PMC11567888.
